# Results published in PubChem BioAssay AID1508600 (Functional Genomics Laboratory (NCATS/FGL), 2020).
# Hit rate of the full screen: of about 53,000 sequences, about 3,700 (7%) were called active.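 Rule for the calls: active = gene knockdowns whose robust z-score for IL-1 alpha signal is at least 2 or at most -2, so actives lie on both sides; inactive = the rest.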 This is one part of the list.
# Assay: Components of the Cytosolic LPS Sensing Pathway: Gene Identification via Genome-wide siRNA Screen;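 note: robust z of the log signal after scaling to non-targeting control siRNA wells of the plate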
# Conditions: RAW264.7 macrophages, IL-1a HTRF, actives lie on both sides, screened at 100 nM (by protocol), cells primed 5 h with Pam3CSK4 first
# Outline: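 RAW264.7 mouse macrophages reverse-transfected with single siRNAs (100 nM final) for 48h, primed with Pam3CSK4 for 5 hours, then transfected with LipidA for 24 hour. Supernatant IL-1a read by HTRF; values normalized to negative-control median, log-transformed robust z-scores.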
row,Sequence,z-score
1,GCGCACACCCUACUUGAUUTT against Pcdh20,inactive: 1.08
2,GGUGAAUCAGACAUACUAUTT against Snupn,active: 3.31
3,GGAUUUACAUCCAUUGUUGTT against Otoa,inactive: 0.153
4,GGUCAAGAAAAAGUUUCAGTT against Spag7,inactive: -0.309
5,CGAUACUGAUCACUCCUAUTT against Uggt1,inactive: -0.206
6,GAGAGUCGCGCGCUUUUAATT against Nxph4,inactive: 1.23
7,GGUAUAUGGUGGGAACUUUTT against Bnipl,active: 2.04
8,GGGUGUGUUCUUAUCUCAUTT against Olfr921,inactive: 1.52
9,CCUAUUCCAUUGACAAUGATT against Tubb2a,inactive: 0.286
10,GCUAGACUUGGAGAAUUAATT against G3bp2,inactive: 1.21
11,GGAAUUCCAUUCCAGUCGCTT against H2al1m,inactive: -0.886
12,CCUUCAACACCACGAAUCUTT against Npdc1,inactive: 1.47
13,GGUCAAGUAUCAUUUUUGCTT against Negr1,inactive: -0.631
14,GGAUGUGAUCCUACUGACATT against Tmem208,inactive: 0.793
15,GCUAGAACAGCAAAAAAAATT against Scgb3a1,inactive: -0.512
16,GGUGUACUUUUUCCUAUUUTT against Olfr352,inactive: -0.91
17,CCUGUAAAACAUUGUGAACTT against Fam189b,inactive: 0.0797
18,GCUUAUGAGACUCAUUUAATT against Oser1,inactive: 0.554
19,CCAGAUCCCAUAGCAACCATT against Bpnt1,inactive: -0.747
20,AACAUCCAAACCCAAGAGATT against Gm5941,inactive: -0.0833
21,CCAACAUCUGCGUGUUUGCTT against L3hypdh,inactive: 0.36
22,GGCAAGAAACAGUCAUAAGTT against Eps8l3,inactive: 0.404

row,Sequence,z-score
1,GGUAGUGCCAUAAUUUCUGTT against Nipal2,inactive: -0.782
2,GGUAGUAGAGAUGUUUGAUTT against Fam83g,inactive: 1.37
3,GGGAAUCCAAGGAGAGCAUTT against Arl13b,inactive: 0.471
4,GGAACAAGUGUCUGACAGUTT against Emc3,inactive: 1.82
5,GGCGUAUUUUCCAACAGAGTT against Nxf3,inactive: -0.551
6,GGGAGAUCGAACAGAAUGGTT against Tmcc3,inactive: -0.00508
7,GGAAGGCAAAUCAAAAUCCTT against Zfp609,inactive: 0.83
8,GGUACUUACAGGUUGUCAUTT against Mageb1,inactive: -0.256
9,GGUUAAAAACAACUGAAAGTT against 9630028B13Rik,inactive: -1.04
10,GGUUUUUCUCCUUGGUUAUTT against Krt79,inactive: 0.716
11,GGAUCAGUUGGCAAAGCUCTT against Ccdc39,inactive: -0.651
12,GCGAGCUAAUGUCACAUUCTT against Il17ra,active: 3.74
13,GGGUACACAAGAUGGACUGTT against Jun,inactive: -1.25
14,GGACACAGAUUAAUCAAGATT against Iftap,inactive: 0.144
15,GGUAUGGUUUCUAUAACAATT against Arsj,inactive: 0.814
16,CUGAAUCAGAUAAAGAGUUTT against H2ac18,inactive: 0.485
17,CCGCCAAGAUUCUGAACAUTT against Ifitm6,inactive: 0.306
18,GGGUGUGAGGGAUUUCAUCTT against Ndufa2,active: 2.22
19,GGGUGUUGAAAGACUUUUATT against Tnks,inactive: -0.122
20,GCCAAUAAACGAAACUCUGTT against Reep2,inactive: 0.733
21,GGUAGAGGACCGCUUCUAUTT against Spa17,inactive: 0.34
22,GGAUCAUCUCCUCCAUUCUTT against Olfr393,inactive: -0.57

row,Sequence,z-score
1,GGUUUUAUGAGAAUAGAACTT against Zdhhc21,inactive: -1.02
2,GGAGCUAAACAACUUAAGATT against Cbwd1,inactive: 0.461
3,GGAAGCGGGAGAUAGAGGATT against Xpo6,inactive: -0.108
4,GGCUGGUGACCUACAUCUUTT against Rhbdd2,inactive: 0.659
5,GGGCAAUUGCUAUAUCUUATT against Cldn2,inactive: -0.0256
6,GGUGACAUGCUGAUUGUUGTT against Yod1,inactive: 0.714
7,CGUUAUCUCAGUGGAUACUTT against Wdr36,inactive: 1.98
8,GGGAAAUAAAGGUUAUGCCTT against Rpp25l,inactive: -1.11
9,GGAUAGGAUGUAAAGAUCATT against Atp6v0c,inactive: 0.545
10,CCGAUAAGUAUUAUGGUGCTT against Fh1,inactive: 0.162
11,GGGCAGCUGGAUAGCUAAATT against Gimap5,inactive: 0.339
12,GCGGGCUUGGAAGAAUCAUTT against Gle1,inactive: -1.39
13,CCUAUCUCCUAACUUAGUUTT against Vmn1r185,inactive: 1.48
14,GGUGAUCUAGAAACAACCCTT against Tmco5,inactive: 0.243
15,GGACUUCCAGAUCCAACCUTT against Robo4,inactive: -0.867
16,GGGAAAAAAAAGCAUCACUTT against Fbxl22,inactive: -1.45
17,GCAAGUGCUCCAAUCUUGCTT against Ccl5,inactive: -0.106
18,CCUCAAGCCUCACAAUUCATT against Zfp160,inactive: -0.0856
19,GGAAGAUCUGUACUACGGGTT against Bsnd,inactive: 1.42
20,CCAAAGAGUUAUCGUUCUATT against Tktl2,inactive: 1.1
21,GGUACAGAUUCUUGUGGACTT against Bace2,inactive: 1.61
22,GGUGGAGAUCAAACCAGAGTT against Rps15,inactive: 1.4

row,Sequence,z-score
1,GCUGACCUAUUCUGAUCCATT against Chchd4,inactive: -0.223
2,CGGCAGCAAUCAUCAGUAGTT against Ppme1,inactive: 0.482
3,GGAACAGUCCUGUACACCCTT against Lilr4b,inactive: -0.0608
4,GCAACUUGUCAGAUGUUUCTT against Trpm7,active: 3.35
5,CCAUCCUGGGACUUAUCUGTT against Olfr447,inactive: 0.124
6,GGAAGCCAUUGGGUUAAGCTT against Gpr141,inactive: -0.117
7,GGACUCUACUAGGAAUAAATT against Col16a1,inactive: -0.00624
8,GGUUUUAAUUUCAACUGUCTT against Tpp1,inactive: -0.468
9,GGAUACCAAUAGAACAAAGTT against Zfp775,inactive: 0.554
10,GGAGCACUUAGAUGACUAUTT against Skil,inactive: 1.39
11,GGAAAGGGAAUACUUUGCUTT against Ube2q1,inactive: -0.0217
12,GCUCUUAAAACCCACCUGATT against Gzf1,inactive: -1.97
13,GGUGAGAAUGUGCUUCAAUTT against Egr2,inactive: -0.0732
14,GGGACUUUUACCUCAAAUGTT against Trim30b,inactive: 0.795
15,GGCACUGUUCUCAUCUGUGTT against Olfr736,active: -2.41
16,GGCCUGCACGAAUGAGUUUTT against Ube3a,inactive: -0.0215
17,GCUAGUGCUUAUUACGAUUTT against Fut4,inactive: 1.29
18,GGAUGAUGCUCGAAAGAAGTT against Tssk1,inactive: 0.462
19,GGAUUACGGUGGGAUCAUGTT against Faxc,inactive: -1.38
20,GGAUGUGGUGGAAGAUUUCTT against Krt7,inactive: 1.2
21,GGCUUGACUCCAAGACUGUTT against Mtch2,inactive: -0.0944
22,GGAGAUUGGCAUCCAGAACTT against Podxl2,inactive: 0.954

# Some of the entries so far, bar-delimited.
row | Sequence | z-score
17 | CCGCCAAGAUUCUGAACAUTT against Ifitm6 | inactive: 0.306
14 | GGUGAUCUAGAAACAACCCTT against Tmco5 | inactive: 0.243
20 | CCAAAGAGUUAUCGUUCUATT against Tktl2 | inactive: 1.1
2 | CGGCAGCAAUCAUCAGUAGTT against Ppme1 | inactive: 0.482

# (cont.)

row,Sequence,z-score
1,CCGAAUGAUCACUCAAACUTT against Rbms1,inactive: 0.543
2,CGAGUGUUAGAUGCUAAAATT against Lamc2,inactive: 1.32
3,CCUCUUCUUGUUUCAAGGGTT against Piezo2,inactive: 0.062
4,CGCGCCUGAAAAUGUUGAATT against Pdik1l,inactive: 0.0427
5,GCGUGAGAUACCAUAUUAUTT against Bank1,inactive: -1.47
6,CGGGAUCUAUCCACUGAUGTT against Nrbp2,inactive: -0.983
7,GGUAUCAAAACAACAGUCCTT against Upk1b,inactive: -0.709
8,GGAACAUGGCACUUUCGUGTT against Pcdh10,inactive: 0.905
9,CGGGCAUAAAGGUUACAUATT against Hspa4,inactive: 1.01
10,GCCCAUUAUGCAAGAAUAATT against Ppp1r17,inactive: -1.15
11,GGUUCUGAUUUUUAGUGGUTT against Dnaaf6b,inactive: 1.11
12,CUCUAUCUCAUUGCAGUCCTT against Olfr671,inactive: -0.0809
13,GGGACAUUCCCUGAACUUCTT against Ccdc142,inactive: 0.306
14,GGAGAAAUGUUGUUGUCUUTT against Kcng3,inactive: -0.327
15,GGUGCCUGAGAUGCCCAAUTT against Defa-rs12,inactive: -0.117
16,CGUUUUACCACCGUGUGCUTT against Gfra1,inactive: -0.284
17,GGCAUUGAUCACUGACAGCTT against 9530077C05Rik,inactive: 0.827
18,GCACUUAACAGAAUGAAUUTT against Alg2,inactive: 0.532
19,ACGUAGGUUAACUGAACAUTT against Zscan26,inactive: -0.268
